Measured values: publication PMC7392604
No constants are given. Whether binding was seen depends on the method and setting. Binding seen in cells or lysates may run through a third protein. Some binding calls cover weakened binding; strength is not graded here. For part of these data: Tags and fused reporters may be left off the sequences shown.

Protein sequences, listed by entry. Tags and fused reporters are not part of them.
UniProt Q8R3Z5: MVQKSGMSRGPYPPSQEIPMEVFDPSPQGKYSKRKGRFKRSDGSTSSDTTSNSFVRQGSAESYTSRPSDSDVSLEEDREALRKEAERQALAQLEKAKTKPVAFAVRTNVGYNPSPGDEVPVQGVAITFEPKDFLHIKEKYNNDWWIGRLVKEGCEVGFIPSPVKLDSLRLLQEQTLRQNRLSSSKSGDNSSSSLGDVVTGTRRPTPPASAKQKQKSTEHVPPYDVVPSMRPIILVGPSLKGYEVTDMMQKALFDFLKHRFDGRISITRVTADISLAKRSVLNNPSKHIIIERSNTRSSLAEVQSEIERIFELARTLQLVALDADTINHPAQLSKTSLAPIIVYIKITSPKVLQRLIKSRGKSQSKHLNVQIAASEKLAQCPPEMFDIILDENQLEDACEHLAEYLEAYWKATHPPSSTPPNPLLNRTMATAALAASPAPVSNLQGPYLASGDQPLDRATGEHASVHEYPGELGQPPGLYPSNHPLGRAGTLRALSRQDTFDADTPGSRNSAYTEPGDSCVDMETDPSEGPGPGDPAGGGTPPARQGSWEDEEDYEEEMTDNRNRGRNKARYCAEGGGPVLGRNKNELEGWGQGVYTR
UniProt P54283: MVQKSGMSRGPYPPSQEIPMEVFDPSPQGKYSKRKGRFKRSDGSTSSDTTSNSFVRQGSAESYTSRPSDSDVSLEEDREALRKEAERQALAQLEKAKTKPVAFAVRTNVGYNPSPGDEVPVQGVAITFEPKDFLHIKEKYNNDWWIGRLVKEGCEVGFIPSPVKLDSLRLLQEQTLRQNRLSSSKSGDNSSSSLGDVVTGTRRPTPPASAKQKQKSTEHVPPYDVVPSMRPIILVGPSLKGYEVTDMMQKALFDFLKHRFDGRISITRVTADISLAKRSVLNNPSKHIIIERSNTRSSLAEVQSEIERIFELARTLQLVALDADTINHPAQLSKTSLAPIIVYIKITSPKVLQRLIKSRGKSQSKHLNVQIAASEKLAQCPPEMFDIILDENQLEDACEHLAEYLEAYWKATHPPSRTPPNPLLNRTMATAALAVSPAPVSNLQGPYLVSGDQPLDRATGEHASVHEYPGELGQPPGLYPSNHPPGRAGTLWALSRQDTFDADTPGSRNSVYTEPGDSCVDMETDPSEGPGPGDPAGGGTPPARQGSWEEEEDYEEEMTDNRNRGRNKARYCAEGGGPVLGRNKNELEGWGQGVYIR

B1: BIN1 (endogenous, rat hippocampal neurons) (protein, UniProt O08839 1-588)
chain: MAEMGSKGVTAGKIASNVQKKLTRAQEKVLQKLGKADETKDEQFEQCVQNFNKQLTEGTRLQKDLRTYLASVKAMHEASKKLSECLQEVYEPEWPGRDEANKIAENNDLLWMDYHQKLVDQALLTMDTYLGQFPDIKSRIAKRGRKLVDYDSARHHYESLQTAKKKDEAKIAKPVSLLEKAAPQWCQGKLQAHLVAQTNLLRNQAEEELIKAQKVFEEMNVDLQEELPSLWNSRVGFYVNTFQSIAGLEENFHKEMSKLNQNLNDVLVSLEKQHGSNTFTVKAQPSDSAPEKGNKSPSPPPDGSPAATPEIRVNHEPEPASGASPGATIPKSPSQLRKGPPVPPPPKHTPSKEMKQEQILSLFDDAFVPEISVTTPSQFEAPGPFSEQASLLDLDFEPLPPVASPVKAPTPSGQSIPWDLWEPTESQAGVLPSGEPSSAEGSFAVAWPSQTAEPGPAQPAEASEVVGGTQEPGETAASEATSSSLPAVVVETFSATVNGAVEGSTTTGRLDLPPGFMFKVQAQHDYTATDTDELQLKAGDVVLVIPFQNPEEQDEGWLMGVKESDWNQHKELEKCRGVFPENFTERVQ
B2: human BIN1 isoform 1 tagged with mKate2 at the C-terminus (protein, UniProt O00499 1-593)
chain: MAEMGSKGVTAGKIASNVQKKLTRAQEKVLQKLGKADETKDEQFEQCVQNFNKQLTEGTRLQKDLRTYLASVKAMHEASKKLNECLQEVYEPDWPGRDEANKIAENNDLLWMDYHQKLVDQALLTMDTYLGQFPDIKSRIAKRGRKLVDYDSARHHYESLQTAKKKDEAKIAKPVSLLEKAAPQWCQGKLQAHLVAQTNLLRNQAEEELIKAQKVFEEMNVDLQEELPSLWNSRVGFYVNTFQSIAGLEENFHKEMSKLNQNLNDVLVGLEKQHGSNTFTVKAQPSDNAPAKGNKSPSPPDGSPAATPEIRVNHEPEPAGGATPGATLPKSPSQLRKGPPVPPPPKHTPSKEVKQEQILSLFEDTFVPEISVTTPSQFEAPGPFSEQASLLDLDFDPLPPVTSPVKAPTPSGQSIPWDLWEPTESPAGSLPSGEPSAAEGTFAVSWPSQTAEPGPAQPAEASEVAGGTQPAAGAQEPGETAASEAASSSLPAVVVETFPATVNGTVEGGSGAGRLDLPPGFMFKVQAQHDYTATDTDELQLKAGDVVLVIPFQNPEEQDEGWLMGVKESDWNQHKELEKCRGVFPENFTERVP

What was measured:
[1] = target: L-type voltage-gated calcium channel beta-1 subunit (endogenous, mouse brain) (mouse (endogenous in brain)) (UniProt Q8R3Z5); assay: co-IP; mouse brain homogenates of wild-type and Tau KO mice, treated with 1 mM cross-linker DSP, mild co-IP buffer (10 mM Tris pH 7.5, 10 mM NaCl, 3 mM MgCl2, 1 mM EGTA, 0.05% Nonidet P-40); LVGCC-β1 immunoprecipitated (5 µg antibody, Protein G magnetic beads), blotted for BIN1; complex reduced in Tau KO brains
[2] = target: L-type voltage-gated calcium channel beta-1 subunit (endogenous, rat hippocampal neurons) (rat (endogenous in primary hippocampal neurons)) (UniProt P54283); assay: proximity ligation; fixed, permeabilized primary rat hippocampal neurons; primary antibodies for BIN1 (sc-30099) and LVGCC-β1 (S7-18), Duolink In Situ Fluorescence kit; puncta per field of view; untransduced, AAV-mKate2 or AAV-BIN1-mKate2; also with Tau ASO or scrambled ASO (1 µM), Tau reduction decreased the interaction

Row | Molecule | binding [1] | binding [2]
1 | BIN1 (endogenous, mouse brain) (from UniProt O08539 1-588) | binds | –
2 | B1 | – | binds
3 | B2 | – | binds
